Values quoted from earlier work, collected in patent US7098242B2, “Dihydroartemisinin and dihydroartemisitene dimers as anti-cancer and anti-infective agents” (The University of Mississippi, priority 2002, dated 2006).
For at least one compound, name, drawing or mass did not settle the structure.

Test system: malaria

## CO[C@H]1O[C@@H]2O[C@@]3(C)CC[C@H]4[C@H](C)CC[C@@H]([C@H]1C)[C@@]24OO3 [artemether]
  activity relative to other artemisinin derivatives: more active than artemisinin itself
